# According to US20110212890A1 (Takeda Pharmaceutical Company Limited, priority 2008, published 2011):
# Experiment: general procedure: Fmoc solid-phase peptide synthesis; Rink amide MBHA resin; DCC/HOBt; DIPCDI/HOAt
# Details: whole synthesis, scale 0.06 mmol, TFA salt
substance,measurement,value
H-Acp-D-Tyr-D-Trp-Asn-Thr-Phe-AzaGly-Leu-Arg(Me)-Trp-NH2,isolated mass,7.1 mg
